PubChem BioAssay AID504764, Drosophila RNAi Screening Center, 2011
Purpose: 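Knock-downs that raise or lower a Notch target reporter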 (primary screen). System: Drosophila Kc167 cells. Reagent: long dsRNA against Drosophila genes. Timing: about 5 days (4 days dsRNA, then 24 h after transfection). Challenge: transfection of constitutively active membrane-tethered Notch lacking the extracellular domain, read 24 h later. Measurement: 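Light from a Notch-responsive E(spl)m3 luciferase reporter under active Notch, with control-promoter and no-Notch reporter wells to normalise; raw counts from paired wells a and b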. Direction: induced reporter light, run 1, well a and induced reporter light, run 1, well b: higher = more light from the Notch target reporter with active Notch; control promoter light, run 1, well a and control promoter light, run 1, well b: higher = more light from the viral control promoter (cell number, transfection, viability); uninduced reporter light, run 1, well a: higher = more light from the Notch target reporter without active Notch. Active means: 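Hit if the duplicate-averaged log2 ratio of induced to control-promoter light gives a plate-wise z beyond ±2, or induced to uninduced beyond ±1.8; weak-control or discordant-duplicate wells dropped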. Calls: active = modifier hit (raised or lowered Notch signal); inactive = not a hit.
The deposit covers about 22,000 reagents; this is an unselected part of those that have a named target and a result. Of all reagents, 403 (1.9%) got an active call. 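Unnormalised raw counts per well; ratio z-scores behind the hit calls and whether each hit raises or lowers signal are not deposited.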 No sequences are given here. Not stated in the record: the amount of reagent.

Depletion of Myd88 [DRSC06815] resulted in: induced reporter light, run 1, well a = 1.24e5; induced reporter light, run 1, well b = 1.49e5; control promoter light, run 1, well a = 1.12e5; control promoter light, run 1, well b = 1.22e5; uninduced reporter light, run 1, well a = 9000; inactive.
For RpL12 (Ribosomal protein L12) [DRSC04344] the deposit lists induced reporter light, run 1, well a = 57155; induced reporter light, run 1, well b = 52755; control promoter light, run 1, well a = 41895; control promoter light, run 1, well b = 49280; uninduced reporter light, run 1, well a = 3975; inactive.
With knock-down of CG32985 [DRSC02634], the record shows induced reporter light, run 1, well a = 88360; induced reporter light, run 1, well b = 1.19e5; control promoter light, run 1, well a = 64295; control promoter light, run 1, well b = 92150; uninduced reporter light, run 1, well a = 15960; inactive.
For CG6216 [DRSC10606] the deposit lists induced reporter light, run 1, well a = 97055; induced reporter light, run 1, well b = 84000; control promoter light, run 1, well a = 1.09e5; control promoter light, run 1, well b = 83215; uninduced reporter light, run 1, well a = 4670; inactive.
With knock-down of Gagr (Gag-related) [DRSC10441], the record shows induced reporter light, run 1, well a = 1.11e5; induced reporter light, run 1, well b = 1.43e5; control promoter light, run 1, well a = 67725; control promoter light, run 1, well b = 80220; uninduced reporter light, run 1, well a = 7895; inactive.
Depletion of CG10589 [DRSC11629] came out at: induced reporter light, run 1, well a = 1.30e5; induced reporter light, run 1, well b = 1.66e5; control promoter light, run 1, well a = 1.41e5; control promoter light, run 1, well b = 1.16e5; uninduced reporter light, run 1, well a = 8655; inactive.
After knock-down of CG4650 [DRSC02767], the record shows induced reporter light, run 1, well a = 1.05e5; induced reporter light, run 1, well b = 1.28e5; control promoter light, run 1, well a = 1.37e5; control promoter light, run 1, well b = 1.42e5; uninduced reporter light, run 1, well a = 10870; inactive.
CG11267 [DRSC09833] showed induced reporter light, run 1, well a = 1.79e5; induced reporter light, run 1, well b = 1.81e5; control promoter light, run 1, well a = 2.48e5; control promoter light, run 1, well b = 2.80e5; uninduced reporter light, run 1, well a = 11270; inactive.
Kank [DRSC05513] gave induced reporter light, run 1, well a = 2.42e5; induced reporter light, run 1, well b = 2.20e5; control promoter light, run 1, well a = 2.93e5; control promoter light, run 1, well b = 2.33e5; uninduced reporter light, run 1, well a = 17035; inactive.
Against Kank [DRSC05933], the entry reads induced reporter light, run 1, well a = 1.80e5; induced reporter light, run 1, well b = 1.83e5; control promoter light, run 1, well a = 1.47e5; control promoter light, run 1, well b = 1.62e5; uninduced reporter light, run 1, well a = 12135; inactive.
Atg1 (Autophagy-related 1) [DRSC09809] scored induced reporter light, run 1, well a = 1.10e5; induced reporter light, run 1, well b = 88625; control promoter light, run 1, well a = 64960; control promoter light, run 1, well b = 30700; uninduced reporter light, run 1, well a = 7060; inactive.
For Atg1 (Autophagy-related 1) [DRSC09810] the deposit lists induced reporter light, run 1, well a = 1.44e5; induced reporter light, run 1, well b = 1.49e5; control promoter light, run 1, well a = 2.29e5; control promoter light, run 1, well b = 1.51e5; uninduced reporter light, run 1, well a = 3810; active.
Silencing of mahj (mahjong) [DRSC04053] came out at: induced reporter light, run 1, well a = 1.49e5; induced reporter light, run 1, well b = 1.33e5; control promoter light, run 1, well a = 1.14e5; control promoter light, run 1, well b = 99620; uninduced reporter light, run 1, well a = 9105; inactive.
Knock-down of CG42583 [DRSC22937] gave: active.
With knock-down of CG1572 [DRSC19686], the screen gave induced reporter light, run 1, well a = 1.61e5; induced reporter light, run 1, well b = 1.56e5; control promoter light, run 1, well a = 2.21e5; control promoter light, run 1, well b = 2.24e5; uninduced reporter light, run 1, well a = 11025; inactive.
With knock-down of CG18324 [DRSC06721], the screen gave induced reporter light, run 1, well a = 1.87e5; induced reporter light, run 1, well b = 1.39e5; control promoter light, run 1, well a = 1.88e5; control promoter light, run 1, well b = 1.59e5; uninduced reporter light, run 1, well a = 12510; inactive.
With knock-down of Cyt-c-p (Cytochrome c proximal) [DRSC03310], the record shows induced reporter light, run 1, well a = 1.14e5; induced reporter light, run 1, well b = 1.18e5; control promoter light, run 1, well a = 1.27e5; control promoter light, run 1, well b = 1.23e5; uninduced reporter light, run 1, well a = 10670; inactive.
With knock-down of CG3448 [DRSC10368], the screen gave induced reporter light, run 1, well a = 1.23e5; induced reporter light, run 1, well b = 1.40e5; control promoter light, run 1, well a = 1.70e5; control promoter light, run 1, well b = 1.90e5; uninduced reporter light, run 1, well a = 5775; inactive.

Taken from above:
CG32985 [DRSC02634], induced reporter light, run 1, well a: 88360
Value for Gagr (Gag-related) [DRSC10441] under “activity call”: inactive
